PMC5484111, “Isolation, Amino Acid Sequences, and Plausible Functions of the Galacturonic Acid-Binding Egg Lectin of the Sea Hare Aplysia kurodai” (Marine Drugs, 2017)
≈ marks a conversion by molar mass, not a printed value.

System: T1, AKL (Aplysia kurodai lectin)
T1 construct: gene AKL-a; inseparable isolectin mixture; 18-residue signal removed, mature 218 or 219 residues, N-glycosylated; N-termini SGDQAMCDVI, NQDQAMCDVI; cDNAs from albumen gland of a different individual, some N-terminal residues differ
Experiment: inhibition of hemagglutination of rabbit erythrocytes
Assay type: cell-based
Details: minimum concentration inhibiting hemagglutination, titer 8, pH 8.0, 37 °C, methods say diluted extract, results say AKL

| SMILES | minimum inhibitory concentration [mM] | minimum inhibitory concentration (no inhibition at highest concentration tested) [mM] |
| --- | --- | --- |
| OC1OC[C@@H](O)[C@H](O)[C@H]1O (stereo partly drawn) [D-xylose] | 6.25 (≈ 938 µg/mL) | – |
| OC[C@H]1OC(O)[C@H](O)[C@@H](O)[C@H]1O (stereo partly drawn) [D-galactose] | – | > 100 |
| O=C(O)[C@H]1OC(O)[C@H](O)[C@@H](O)[C@H]1O (stereo partly drawn) [GalU, D-galacturonic acid] | 0.013 (≈ 2.52 µg/mL) | – |
